# According to PubChem BioAssay AID504467 (National Center for Advancing Translational Sciences (NCATS), 2011):
# About 7,700 (2.3%) of roughly 330,000 compounds were called active. The inconclusive results got no clear call from the source; some entries with a clear call stand among them for comparison. The call rests on the fitted dose curve; in most records, active means well fitted inhibition curve with a large enough effect; inconclusive means small, poorly fitted or top-dose-only effect, or effect the other way; inactive means flat fitted curve, though single readings scatter. Potencies of inconclusive entries are doubtful fits and often do not repeat.
# Assay: qHTS screen for small molecules that inhibit ELG1-dependent DNA repair in human embryonic kidney (HEK293T) cells expressing luciferase-tagged ELG1; further: nearly all actives have a fitted effect of over 55% in size
# Conditions: HEK293T ELG1-luciferase reporter, luminescence, 16 h, DNA damage induced by 5-fluorouridine; activity change, negative = inhibition: at 46.1 µM (top of the series)
# Method in brief: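 Reporter activity after DNA damage by 5-fluorouridine is monitored. Compound-treated cells incubate 16 hr at 37 °C, then ONE-Glo is added for 30 min before luminescence reading.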
# On the % scale 0 is the no-effect control and ±100 the full control effect; potency means the concentration at half of the fitted maximal effect.
Compound,Potency,"activity change, negative = inhibition"
COC(=O)c1sccc1N/N=C/c1ccc(OC)c(OC)c1OC,"inconclusive: 3.26 µM [activator, single point]",
O=C1N/C(=N\N=C\c2cccs2)SC1Cc1cccc(Cl)c1Cl (stereo unspecified),"inconclusive: 1.84 µM [inhibitor, partial curve]",
COc1cccc(CN(C)C(=O)c2cccc(S(=O)(=O)NCc3ccccc3)c2)c1OC,"inconclusive: 29.1 µM [inhibitor, single point]",
COc1cc(NC(=O)c2sc3ncn(CC(=O)N4CCCC(C)C4)c(=O)c3c2C)cc(OC)c1OC (stereo unspecified),"inconclusive: 32.6 µM [inhibitor, single point]",
COc1ccccc1N1CCN(C(=O)c2cc(C(=O)N3CCN(c4ccccc4OC)CC3)cc([N+](=O)[O-])c2)CC1,,inactive: -7.45%
NC(=S)N1OC[C@@H]2COc3ccc4ccccc4c3[C@@H]21,active: 11.6 µM,
Cn1cc(C(=O)N2CCCC(Nc3ccc(F)cc3)C2)c2ccccc21 (stereo unspecified),"inconclusive: 29.1 µM [inhibitor, single point]",
C(=C1/CCCC2=C1Nc1ncnn1C2c1ccccc1)/c1ccccc1 (stereo unspecified),"inconclusive: 17.8 µM [inhibitor, partial curve, poor fit]",
CCOC(=O)Nc1ccc(OC)c([N+](=O)[O-])c1,"inconclusive: 23.1 µM [activator, single point]",
CCCCC(=O)Nc1sc2c(c1-c1nc3ccccc3s1)CCN(C(C)=O)C2,active: 18.4 µM,
CCOC(=O)CNC(=O)CSc1nc2cccnc2n1C,,inactive: -3.64%
Cc1ccc(NC(=O)CCSc2nnnn2-c2ccc3c(c2)OCO3)cc1C,"inconclusive: 23.1 µM [inhibitor, single point]",
CS(=O)(=O)NCCC1=CCCCC1,"inconclusive: 29.1 µM [inhibitor, single point]",
O=C(Nc1ccc(N2CCN(C(=O)c3ccco3)CC2)cc1)c1ccc2c(c1)OCO2,active: 18.4 µM,
Cn1c(CCN2CCOCC2)nc2cc(NC(=O)COc3ccc(Cl)cc3)ccc21,"inconclusive: 22.4 µM [inhibitor, single point]",
C=CCSc1ncc(C(=O)OCC)c(N)n1,"inconclusive: 16.4 µM [activator, single point]",
CCOc1ccc(NC(=O)c2cnc3scc(C)n3c2=O)cc1,"inconclusive: 13 µM [activator, partial curve]",
COc1ccc(-c2cc3ccc(O)cc3oc2=O)cc1,"inconclusive: 8.2 µM [activator, partial curve]",
COC(=O)CSC1=C(C#N)C(c2ccc(C(C)C)cc2)CC(=O)N1 (stereo unspecified),,inactive: -1.82%
N#Cc1c(N)nc(N)nc1Nc1ccc(Br)cc1,"inconclusive: 5.17 µM [activator, partial curve]",
CCn1c(COc2ccc(OC)cc2)nnc1SCC(=O)Nc1cc(OC)ccc1OC,"inconclusive: 25.9 µM [inhibitor, single point]",
C/C(=N/NC(=O)CNC(=O)COc1ccccc1)c1ccc(Cl)cc1,,inactive: 27.3%
COc1ccc(-c2cc(C(=O)N3CCCC(C(F)(F)F)C3)c3ccccc3n2)cc1 (stereo unspecified),"inconclusive: 25.1 µM [inhibitor, single point]",
CCOC(=O)CC(=O)CSc1nnc2sc3ccccc3n12,"inconclusive: 29.1 µM [activator, single point]",

# Fetched by compound from the entries so far, 2 records:
Compound,Potency,"activity change, negative = inhibition"
CCOC(=O)CNC(=O)CSc1nc2cccnc2n1C,,inactive: -3.64%
C/C(=N/NC(=O)CNC(=O)COc1ccccc1)c1ccc(Cl)cc1,,inactive: 27.3%

# Additional structures:

Compound,Potency,"activity change, negative = inhibition"
O=C(O)c1cc(N=Cc2c(O)c3ccccc3oc2=O)ccc1O,,inactive: 0.055%
CCOc1ccccc1NC(=O)COC(=O)c1ccc2ccccc2n1,,inactive: 4.88%
O=C(NNC(=O)C1C2C=CC(C2)C1C(=O)O)c1ccccc1 (stereo unspecified),"inconclusive: 29.1 µM [activator, single point]",
CC(C)(C)c1ccc(-n2ncc3c2CCCC3NC(=O)CN2CCCC2=O)cc1 (stereo unspecified),"inconclusive: 4.61 µM [inhibitor, partial curve, poor fit]",
CC(C)N=C1NN=C(c2ccc(F)cc2)CS1,"inconclusive: 3.66 µM [activator, full curve]",
CC(C)C(=O)Nc1cccc(S(=O)(=O)c2cccc(NC(=O)C(C)C)c2)c1,"inconclusive: 23.1 µM [inhibitor, single point]",
N#Cc1c(NC(=O)CSc2ncnc3c2cnn3-c2ccccc2Cl)sc2c1CCCC2,"inconclusive: 16.4 µM [inhibitor, partial curve]",
O=C(Nc1ccc(Nc2ccccc2)cc1)c1cccc(F)c1,"inconclusive: 11.2 µM [activator, partial curve, poor fit]",
Cc1ccc(C(=O)N2CCN=C2SCc2ccc([N+](=O)[O-])cc2)cc1C,"inconclusive: 29.1 µM [inhibitor, partial curve, poor fit]",
Cc1cnnn1-c1cccc([N+](=O)[O-])c1,,inactive: -6.39%
COc1cccc(N2C(=NC(=O)C3CCCCC3)SC3CS(=O)(=O)CC32)c1 (stereo unspecified),,inactive: 5.47%
Cc1ccc(N2N=C(c3ccc(F)cc3)CC2c2ccco2)cc1 (stereo unspecified),,inactive: 15.2%
COC(=O)[C@H](Cc1ccccc1)NC(=O)[C@@H](N)CC(=O)OCc1ccccc1,,inactive: 7.94%
CCCOCCOC(=O)c1[nH]c2c(c1C)C(=O)CC(c1cc(OC)ccc1OC)C2 (stereo unspecified),"inconclusive: 10.3 µM [inhibitor, partial curve]",
CCOc1ccc(-n2c(C)c(C(=O)OC)c3cc(O)ccc32)cc1,"inconclusive: 11.6 µM [inhibitor, partial curve, poor fit]",
COc1cccc(CNc2nnnn2C)c1,,inactive: 5.38%
COc1ccc2nc(-c3ccc(Cl)cc3)cc(C(=O)O)c2c1,"inconclusive: 13 µM [activator, partial curve, poor fit]",
CCN1/C(=C/c2cccc[n+]2C)Sc2ccc(OC)cc21,"inconclusive: 3.66 µM [inhibitor, single point]",
Cc1cc(=O)[nH]c(Nc2cccc(Br)c2)n1,"inconclusive: 16.4 µM [inhibitor, single point]",
COc1cccc(CC2(CO)CCN(Cc3cnc(N4CCOCC4)s3)CC2)c1,"inconclusive: 18.3 µM [inhibitor, partial curve, poor fit]",
O=C(CCN1C(=O)C2C3C=CC(C4CC34)C2C1=O)Oc1cccc2cccnc12 (stereo unspecified),,inactive: 2.37%
FC(F)(F)c1cccc(NCc2cn3cccnc3n2)c1,"inconclusive: 32.6 µM [activator, partial curve, poor fit]",
C#CCNc1cc(-c2ccccc2)nc2ncnn12,,inactive: 5.63%
CC(C)C(=O)COc1c2occc2cc2ccc(=O)oc12,,inactive: 7.63%

# Sorted by molar mass (descending): part of the list above
Compound,Potency,"activity change, negative = inhibition"
COc1ccc2nc(-c3ccc(Cl)cc3)cc(C(=O)O)c2c1,"inconclusive: 13 µM [activator, partial curve, poor fit]",
COc1ccc(-c2cc3ccc(O)cc3oc2=O)cc1,"inconclusive: 8.2 µM [activator, partial curve]",
Cc1cnnn1-c1cccc([N+](=O)[O-])c1,,inactive: -6.39%

# Further results follow:

Compound,Potency,"activity change, negative = inhibition"
Cc1ccc(NC(=S)N(Cc2ccc(Cl)cc2)Cc2ccc(C(=O)O)cc2)cc1Cl,,inactive: 5.69%
N=c1c(C(=O)NCc2ccco2)cc2c(=O)n3ccccc3nc2n1Cc1ccc(Cl)cc1,"inconclusive: 29.1 µM [inhibitor, single point]",
CC(C)(C)C1(C)OC(C(=O)NC2CCCCC2)C(C(=O)NC2CCCCC2)O1 (stereo unspecified),"inconclusive: 6.51 µM [inhibitor, full curve, poor fit]",
Cc1nc2ccc(NC(=O)c3cccc(S(=O)(=O)N4CCOCC4)c3)cc2s1,"inconclusive: 20.6 µM [inhibitor, single point]",
N#CC(C#N)=C1C=CC=CN1/C(=C\c1ccccc1Cl)C(=O)c1ccccc1,"inconclusive: 29.1 µM [inhibitor, single point]",
COc1ccc(C)cc1NC(=O)c1cccc(C(=O)Nc2cc(C)ccc2OC)c1,"inconclusive: 35.5 µM [inhibitor, single point]",
CCC(CC)C(=O)NCCc1cc2ccc(OC)cc2[nH]c1=O,"inconclusive: 11.6 µM [activator, partial curve, poor fit]",
COc1cc(/C=N/N(C)c2ccccc2)ccc1O,"inconclusive: 5.8 µM [activator, full curve]",
CCN(c1ccccc1)S(=O)(=O)c1ccc(OC)c(OC)c1,,inactive: -2.65%
CCN(CC)CCNC(=O)c1ccc2c(c1)NC(=O)c1ccccc1S2,"inconclusive: 13 µM [activator, single point]",
Cc1ccc(S(=O)(=O)c2nc(NN(C)C)sc2Cl)cc1,"inconclusive: 29.1 µM [inhibitor, single point]",
O=C(CSc1nnc(Cc2ccccc2)o1)NCc1ccco1,,inactive: -1.4%
O=C(/C=C\c1ccc2c(c1)OCO2)Nc1nnc(SCC(=O)OCc2ccccc2)s1,,inactive: -1.95%
CCC(CC)c1nnc(NC(=O)c2cccc(S(=O)(=O)N3CCOCC3)c2)s1,"inconclusive: 14.6 µM [inhibitor, partial curve, poor fit]",
Cc1ccc(C(=O)Oc2ccc(/C=C3\C(=N)N4N=C(N5CCOCC5)SC4=NC3=O)cc2)cc1,"inconclusive: 16.4 µM [activator, partial curve]",
Clc1ccc(-c2noc(CN3CCN(c4ccccc4)CC3)n2)cc1,,inactive: -0.302%
O=c1[nH][nH]c2cc(=O)n(-c3ccc(Cl)cc3)nc12,,inactive: -3.35%
COc1cccc(CN(C)Cc2nc3cc(C(F)(F)F)ccc3c(=O)[nH]2)c1,"inconclusive: 18.3 µM [inhibitor, single point]",
COC(=O)c1ccc(NC(=S)NC2CCc3ccccc32)cc1 (stereo unspecified),,inactive: 7.07%
CCN(CC(=O)Nc1cccc(F)c1)Cc1nc2ccccc2c(=O)[nH]1,,inactive: -6.49%
COc1ccc(/C=N/NC(=O)c2ccncc2)cc1CN1CCN(c2ccc(F)cc2)CC1,"inconclusive: 10.3 µM [inhibitor, partial curve, poor fit]",
O=c1c2ccccc2oc2cc(-c3ccc4cc[nH]c4c3)ccc12,"inconclusive: 10.3 µM [activator, partial curve]",
N#C/C(C(N)=O)=c1/ccc2c(c1)N1C3=C(CCCC3)CC3CCCCC31N=2 (stereo unspecified),active: 20.6 µM,
